Results reported in PubChem BioAssay AID1487 (National Center for Advancing Translational Sciences (NCATS), 2009).
Where “and” joins values, the source holds several entries; their conditions need not be identical. Identical values can stand only once. The list shows a part of the results. The main result of the screen is listed elsewhere. These columns were measured beside it and carry no call. Most of these compounds were active or inconclusive in the main read-out, so they are no random draw. Words in brackets tell the shape of the fitted curve; partial curves, single points and poor fits give uncertain potencies.

Experiment: qHTS Assay for Modulators of Lamin A Splicing
Conditions: HeLa LMNA splicing GFP/RFP minigene ratio, 48 h
Outline: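 S3 HeLa stable clones carrying a lamin A-EGFP splicing minigene plus DsRed2 were seeded at 600 cells/well in Opti-MEM with 2% FBS, pin-dosed and incubated 48 h at 37°C. Acumen cytometry (488 nm) gave the GFP/RFP total-intensity ratio.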

[1] = measured here: RFP viability control channel
[2] = measured here: GFP splicing reporter channel

Row | SMILES | AC50 [1] | AC50 [2]
1 | CCOC(=O)c1ccc2c(c1)nc(-c1ccc(F)cc1)c1nccn12 | 0.0112 µM [rising, full curve, poor fit] | 
2 | CCOC(=O)c1c(NC(=O)/C=C/c2ccc3c(c2)OCO3)sc(C)c1CC | 35.5 µM [falling, single point] | 35.5 µM [falling, single point]
3 | COc1ccc2c(Cl)c(C(=O)NN)sc2c1 | 31.6 µM [rising, single point] | 35.5 µM [rising, single point]
4 | O=C(CN1C2=NCCN2c2ccccc21)C12CC3CC(CC(C3)C1)C2 | 3.55 µM [rising, partial curve] | 3.55 µM [rising, partial curve]
5 | c1ccc(CNc2nc(CN3CCOCC3)nc3scc(-c4ccccc4)c23)cc1 | 8.91 µM [rising, partial curve] | 
6 | CC1CCCCC1NC(=S)NC(=O)c1ccccc1Br (stereo not given) | 22.4 µM [rising, single point] | 12.6 µM [rising, single point]
7 | COC(=O)/C=C1/N/C(=N\c2nc(C)cc(C)n2)N(c2ccc(C)c(C)c2)C1=O | 12.6 µM [rising, partial curve, poor fit] | 
8 | COc1ccc(Nc2nnc(Cc3ccc(Cl)cc3)c(=O)[nH]2)c(OC)c1 | 22.4 µM [falling, single point] | 28.2 µM [falling, single point]
9 | O=C(N/N=C/c1ccc(C(F)(F)F)cc1)c1ccc(O)cc1 | 12.6 µM [rising, single point] | 
10 | COc1ccc(-n2nnnc2SCC(=O)Nc2ccccc2N2CCOCC2)cc1OC |  | 0.158 µM [rising, partial curve]
11 | Cc1nc2[nH]c(=S)[nH]c2cc1Br | 35.5 µM [rising, single point] | 
12 | COc1ccc(/C=C/c2ccc(=O)n(Cc3ccccc3)n2)cc1 | 3.16 µM [falling, full curve] | 10 µM [falling, partial curve]
13 | CC(=O)N1CCc2cc(N=NC3=C(O)CC(C)(C)CC3=O)ccc21 |  | 0.0112 µM [rising, full curve, poor fit]
14 | CN(C(=O)c1ccc2c(c1)N(Cc1cccc(Cl)c1)C(=O)c1ccccc1S2=O)C1CCCCC1 (stereo not given) | 22.4 µM [rising, single point] | 
15 | Cc1ccc(C(=O)COC(=O)c2cc(=O)[nH]c3ccccc23)cc1 |  | 3.16 µM [falling, partial curve, poor fit]
16 | Cc1cc(C)cc(OC(=O)CS(=O)c2ccc(C(F)(F)F)cc2[N+](=O)[O-])c1 (stereo not given) | 35.5 µM [falling, single point] | 35.5 µM [falling, single point]
17 | Cc1oc2ncn(C)c(=O)c2c1C(=O)NC(C)c1ccccc1 (stereo not given) | 5.62 µM [falling, partial curve, poor fit] | 
18 | O=c1c2ccccc2nc2n1C(CSc1ccccc1)CS2 (stereo not given) | 3.55 µM [rising, partial curve, poor fit] | 
19 | CNCc1ccccc1Sc1cccc2ccccc12 | 22.4 µM [rising, single point] | 10 µM [rising, partial curve, poor fit]
20 | COc1ccccc1NCc1cccn1-c1nnc(N2CCOCC2)s1 |  | 3.16 µM [falling, partial curve, poor fit]
21 | Cc1ccc(N2C(=O)CC(Sc3ccccc3C(=O)O)C2=O)c([N+](=O)[O-])c1 (stereo not given) | 10 µM [falling, partial curve] | 35.5 µM [falling, partial curve, poor fit]
22 | CC(=O)[C@@]1(O)CC[C@H]2[C@H]3C[C@@H](C)C4=CC(=O)C=C[C@]4(C)[C@@]3(F)[C@@H](O)C[C@]21C |  | 0.0112 µM [falling, full curve]
23 | COc1ccc(NC(=O)c2ccc(Oc3ncccn3)cc2)cc1 | 5.62 µM [rising, single point] | 
24 | C=C1c2ccccc2NC(=S)N1Cc1ccc2c(c1)OCO2 | 20 µM [rising, partial curve, poor fit] | 12.6 µM [rising, partial curve, poor fit]
25 | O=C(c1cnc(N2CCCCC2)c2ccccc12)N1CCN(c2ccccc2F)CC1 | 22.4 µM [falling, partial curve, poor fit] | 35.5 µM [falling, single point]
26 | CC(=O)N1CCc2cc(CNS(=O)(=O)c3ccc(Br)s3)ccc21 | 2.24 µM [rising, full curve] | 1.26 µM [rising, full curve, poor fit]
27 | CCCc1cc(=O)[nH]c(=S)[nH]1 | 0.000891 µM [falling, full curve, poor fit] | 0.891 nM [falling, full curve, poor fit] and 2.82 µM [rising, full curve]

Row | SMILES | AC50 [1] | AC50 [2]
28 | CCOC(=O)n1c(=O)n(C)c2ccc(Cl)cc21 |  | 1.58 µM [falling, full curve, poor fit]
29 | O=C(c1nn(Cc2ccccc2)c(=O)c2ccccc12)N1CCc2ccccc2C1 | 31.6 µM [rising, single point] | 
30 | COCCCn1c(=S)[nH]c2sc3c(c2c1=O)CCCS3 | 15.8 µM [falling, single point] | 
31 | CCOc1ccc(C(=O)NCCc2sc3nc(-c4ccc(Cl)cc4)nn3c2C)cc1OCC |  | 0.141 µM [falling, full curve]
32 | Cc1cccc(NC(=S)N(CCN2CCOCC2)Cc2ccccc2F)c1 | 0.00316 µM [falling, full curve, poor fit] | 
33 | COc1ccc(CNC(=O)c2c(C)oc3c2C(=O)c2ccccc2C3=O)cc1 | 15.8 µM [falling, partial curve] | 14.1 µM [falling, partial curve, poor fit]
34 | CN(c1ccc(F)cc1)S(=O)(=O)c1ccc(Cl)c(C(=O)Nc2ccc3c(c2)CCC3)c1 | 12.6 µM [rising, partial curve] | 
35 | O=C(NCC(c1cccs1)N1CCOCC1)c1cccc([N+](=O)[O-])c1 (stereo not given) | 17.8 µM [rising, single point] | 
36 | CN(C1CCCC1)C1CCN(C(=O)CNC(=O)/C=C/c2ccccc2)CC1 | 35.5 µM [rising, single point] | 
37 | O=C(CCCN1C(=O)/C(=C/c2ccccc2Cl)SC1=S)NNC(=O)c1ccccc1Cl | 2.82 µM [rising, full curve, poor fit] | 
38 | COC(=O)Cn1ncc2c(C)n(Cc3ccccc3)c(C)c2c1=O | 14.1 µM [rising, single point] | 
39 | O=C(c1ccc2c(c1)OCCO2)N(Cc1cccnc1)c1nc2c(F)cccc2s1 | 22.4 µM [rising, partial curve, poor fit] | 0.316 µM [rising, full curve, poor fit]
40 | CCN1C(=O)C2(Nc3ccccc3-c3nc4ccccc4n32)c2cc(OC)ccc21 (stereo not given) | 5.01 µM [rising, partial curve] | 0.316 µM [rising, partial curve, poor fit]
41 | CC1CCN(S(=O)(=O)c2ccc(C(=O)Nc3sccc3C(N)=O)cc2)CC1 | 35.5 µM [rising, single point] | 
42 | COc1ccc(/C=C/C(=O)c2ccccc2)cc1Cn1nnc2ccccc21 | 35.5 µM [falling, single point] | 35.5 µM [falling, single point]
43 | Cn1c(C(=O)NCCc2ccccc2)cc2c(=O)n3ccccc3nc21 | 3.16 µM [rising, partial curve, poor fit] | 2 µM [rising, partial curve]
44 | COc1ccc(-c2nc3cc(NC(=O)Cc4ccc(OC)c(OC)c4)ccc3o2)cc1 | 3.98 µM [rising, full curve] | 
45 | OC(COC(c1ccccc1)c1ccccc1)CN1CCc2ccccc2C1 (stereo not given) | 35.5 µM [rising, single point] | 20 µM [rising, single point]
46 | CCCN1C(=O)/C(=C/c2c(NCCCOC(C)C)nc3c(C)cccn3c2=O)SC1=S | 11.2 µM [falling, partial curve, poor fit] | 
47 | CC1=C(CC(=O)O)c2cc(F)ccc2/C1=C\c1ccc(S(C)=O)cc1 (stereo not given) | 0.00562 µM [falling, full curve, poor fit] | 
48 | O=C1C=C(c2ccccc2)CC(/C=C/c2ccccc2)C1 (stereo not given) | 35.5 µM [rising, single point] | 
49 | COc1ccccc1NC(=S)NC1CCC(CC2CCC(NC(=S)Nc3ccccc3OC)CC2)CC1 (stereo not given) | 10 µM [rising, partial curve] | 10 µM [rising, single point]
50 | O=C(Oc1ccccc1/C=C\C(=O)c1cc2ccccc2o1)c1cccc(F)c1 | 17.8 µM [rising, partial curve, poor fit] | 
51 | N#C/C(=C/c1ccc(Br)o1)C(N)=O | 15.8 µM [rising, partial curve, poor fit] | 
52 | Cc1onc(-c2ccccc2)c1-c1ccc(S(N)(=O)=O)cc1 | 35.5 µM [falling, single point] | 31.6 µM [falling, single point]
53 | C/C(=N\NC(=O)C1COc2ccccc2O1)c1ccccn1 (stereo not given) | 25.1 µM [rising, partial curve] | 
54 | COc1cc(CN2CCN(CCc3ccccc3)C(CCO)C2)cc(OC)c1 (stereo not given) | 0.1 µM [falling, full curve, poor fit] | 
